Test results taken from PubChem BioAssay AID330 (DTP/NCI, 2004).
The list shows only some results of the screen, not a fair sample: it is rich in T/C values a quarter to a half above the control, in often repeated tests (any T/C) and in doses without a T/C. Other doses and runs of a compound stand elsewhere. T/C: endpoint of the treated group in % of that of the vehicle group. Some doses have a count of surviving animals in place of a T/C: the source files T/C as zero there, which appears to mark a toxic dose or a test without result, not a measured value. Some doses without a T/C left all or most animals alive at the check, yet need not have been tolerated: survival well below the control is almost never listed, so the zero probably covers shortened survival too. Counts of survivors are from the toxicity check (mostly the fifth day) where no day follows; animals may have died later. Schedules are NCI's codes, taken here to give the interval after Q, in days (D) or hours (H), and the number of doses after X. For survival time, the PubChem record calls one and a half times the control and up active, and a quarter to a half above the control has no call in these data; cut-offs in other NCI protocols can differ. Some doses were run more than once; the results are listed from low to high. Some T/C values carry the count of animals alive at the toxicity check (mostly the fifth day); where none is given, no animal had died by that day.

Test system: P388 leukemia ip, CD2F1 mice, survival T/C
Assay: NCI In Vivo Anticancer Drug Screen. Data for tumor model P388 Leukemia (intraperitoneal) in CD2F1 (CDF1) mice
Conditions: T/C endpoint: median survival time, higher T/C = longer survival
[1] = dose: 400.0 mg/kg/injection, schedule: Q01DX001 (ip), vehicle: saline with Tween-80
[2] = dose: 100.0 mg/kg/injection, schedule: Q01DX009 (ip), vehicle: Klucel (hydroxypropylcellulose) (HPC)
[3] = dose: 12.5 mg/kg/injection, schedule: Q01DX005 (ip), vehicle: Klucel (hydroxypropylcellulose) (HPC)
[4] = dose: 50.0 mg/kg/injection, schedule: Q01DX005 (ip), vehicle: Klucel (hydroxypropylcellulose) (HPC)
[5] = dose: 100.0 mg/kg/injection, schedule: Q01DX005 (ip), vehicle: Klucel (hydroxypropylcellulose) (HPC)
[6] = dose: 200.0 mg/kg/injection, schedule: Q01DX005 (ip), vehicle: Klucel (hydroxypropylcellulose) (HPC)
[7] = dose: 25.0 mg/kg/injection, schedule: Q01DX005 (ip), vehicle: Klucel (hydroxypropylcellulose) (HPC)

CC(C)(C)N(O)N=O.CC(C)(C)N(O)N=O.[Cu] was tested, and the survivor count (dose: 12.5 mg/kg/injection, schedule: Q01DX001 (ip), vehicle: saline with Tween-80) was 3 of 6, the survivor count (dose: 25.0 mg/kg/injection, schedule: Q01DX001 (ip), vehicle: saline with Tween-80) was 2 of 6 and the survivor count (dose: 100.0 mg/kg/injection, schedule: Q01DX001 (ip), vehicle: saline with Tween-80) was 0 of 6. The survivor count (dose: 200.0 mg/kg/injection, schedule: Q01DX001 (ip), vehicle: saline with Tween-80) was 0 of 6 and the survivor count [1] was 0 of 6.
In the case of N=C(N)c1ccc2cc(/C=C/c3cc4ccc(C(=N)N)cc4o3)oc2c1, the T/C (dose: 25.0 mg/kg/injection, schedule: Q04DX003 (ip), vehicle: suspension in saline) is reported as 131 % of control [5 of 6 alive], the T/C (dose: 50.0 mg/kg/injection, schedule: Q04DX003 (ip), vehicle: suspension in saline) is reported as 140 % of control and the T/C (dose: 100.0 mg/kg/injection, schedule: Q04DX003 (ip), vehicle: suspension in saline) is reported as 140 % of control. The survivor count (dose: 200.0 mg/kg/injection, schedule: Q04DX003 (ip), vehicle: suspension in saline) was 2 of 6 and the survivor count (dose: 400.0 mg/kg/injection, schedule: Q04DX003 (ip), vehicle: suspension in saline) was 0 of 6.
For CC(=O)N1CN=C2Sc3ccccc3N2C1, the survivor count (dose: 120.0 mg/kg/injection, schedule: Q01DX005 (ip), vehicle: Klucel (hydroxypropylcellulose) (HPC)) was 3 of 6 and the survivor count (dose: 240.0 mg/kg/injection, schedule: Q01DX005 (ip), vehicle: Klucel (hydroxypropylcellulose) (HPC)) was 0 of 6.
In the case of O=S(=O)(O)Sc1ncnc2nc[nH]c12, the survivor count (dose: 25.0 mg/kg/injection, schedule: Q01DX009 (ip), vehicle: saline) is reported as 2 of 6, the survivor count (dose: 37.5 mg/kg/injection, schedule: Q04DX003 (ip), vehicle: saline) is reported as 1 of 6 and the survivor count (dose: 400.0 mg/kg/injection, schedule: Q01DX009 (ip), vehicle: saline) is reported as 1 of 6. The survivor count (dose: 600.0 mg/kg/injection, schedule: Q04DX003 (ip), vehicle: saline) was 0 of 6.
With CCC(C)(C)c1cccc(C(=O)O)c1O the survivor count (dose: 200.0 mg/kg/injection, schedule: Q04DX003 (ip), vehicle: saline with Tween-80) was 0 of 6 and the survivor count (dose: 400.0 mg/kg/injection, schedule: Q04DX003 (ip), vehicle: saline with Tween-80) was 0 of 6.
NC(=O)c1ncnc2nc[nH]c12 was tested, and the T/C (dose: 3.13 mg/kg/injection, schedule: Q01DX005 (ip), vehicle: saline with Tween-80) was 128 % of control, the T/C (dose: 6.25 mg/kg/injection, schedule: Q01DX005 (ip), vehicle: saline with Tween-80, evaluated on day 27) was 96 % of control and the T/C (dose: 6.25 mg/kg/injection, schedule: Q01DX005 (ip), vehicle: saline with Tween-80, evaluated on day 30) was 101, 107, 109 % of control. For the same compound, the survivor count (dose: 12.5 mg/kg/injection, schedule: Q01DX005 (ip), vehicle: saline with Tween-80) was 6 of 6, the survivor count (dose: 25.0 mg/kg/injection, schedule: Q01DX005 (ip), vehicle: saline with Tween-80) was 0 of 6 and the survivor count (dose: 50.0 mg/kg/injection, schedule: Q01DX005 (ip), vehicle: saline with Tween-80) was 3 of 5. The survivor count (dose: 100.0 mg/kg/injection, schedule: Q01DX005 (ip), vehicle: saline with Tween-80) was 2 of 5 and the survivor count (dose: 200.0 mg/kg/injection, schedule: Q01DX005 (ip), vehicle: saline with Tween-80) was 1 of 5.
For O=[N+]([O-])c1ccc2c(NCCCCCCNc3c4ccccc4nc4cc([N+](=O)[O-])ccc34)c3ccccc3nc2c1, the T/C (dose: 1.25 mg/kg/injection, schedule: Q01DX009 (ip), vehicle: other) was 137 % of control, the T/C (dose: 2.5 mg/kg/injection, schedule: Q01DX009 (ip), vehicle: other) was 127 % of control and the T/C (dose: 5.0 mg/kg/injection, schedule: Q01DX009 (ip), vehicle: other) was 138 % of control. For the same compound, the T/C (dose: 10.0 mg/kg/injection, schedule: Q01DX009 (ip), vehicle: other) was 129 % of control and the T/C (dose: 20.0 mg/kg/injection, schedule: Q01DX009 (ip), vehicle: other) was 138 % of control.
In the case of CCCCN(CCCC)CCCCCCCC(O)c1cc2ccccc2c2ccccc12 (stereo not drawn), the survivor count (dose: 200.0 mg/kg/injection, schedule: Q01DX005 (ip), vehicle: saline + Tween-80 + alcohol) is reported as 4 of 5.
For CC1(C)C2CC=C(C[P+](c3ccccc3)(c3ccccc3)c3ccccc3)C1C2 (stereo not drawn), the T/C (dose: 5.0 mg/kg/injection, schedule: Q01DX009 (ip), vehicle: saline with Tween-80) was 133 % of control.
For CC(=O)CC(c1ccccc1)C(Sc1ccccc1)(Sc1ccccc1)Sc1ccccc1 (stereo not drawn), the survivor count [2] was 6 of 6.
For C(C#CCN1CCOCC1)#CCN1CCOCC1, the T/C (dose: 400.0 mg/kg/injection, schedule: Q01DX009 (ip), vehicle: Klucel (hydroxypropylcellulose) (HPC)) was 125 % of control.
CCN(CC)CCCC(C)NC(Cc1ccccc1)c1cccc2ccccc12 (stereo not drawn) was tested, and the survivor count (dose: 100.0 mg/kg/injection, schedule: Q01DX005 (ip), vehicle: suspension in saline) was 3 of 5.
In the case of CSCc1cc([N+](=O)[O-])ccc1N, the survivor count [1] is reported as 0 of 6.
For COc1ccc2c(c1)CCC(c1ccccc1)=C2c1ccc(OCCN2CCCC2)cc1, the survivor count (dose: 96.0 mg/kg/injection, schedule: Q01DX005 (ip), vehicle: Klucel (hydroxypropylcellulose) (HPC)) was 6 of 6.
In the case of CCC[CH2][Sn]([CH2]CCC)([NH]c1ncnc2[nH]cnc12)[NH]c1ncnc2[nH]cnc12, the T/C (dose: 6.25 mg/kg/injection, schedule: Q01DX005 (ip), vehicle: Klucel (hydroxypropylcellulose) (HPC)) is reported as 125 % of control, the T/C [3] is reported as 131 % of control and the survivor count [3] is reported as 4 of 5. For the same compound, the survivor count [4] was 0 of 6, the survivor count [5] was 0 of 6 and the survivor count [6] was 0 of 6.
With Cc1nc2sc3c(c2c(=N)n1N)CCCC3 the survivor count (dose: 50.0 mg/kg/injection, schedule: Q01DX001 (ip), vehicle: Klucel (hydroxypropylcellulose) (HPC)) was 0 of 6, the survivor count (dose: 100.0 mg/kg/injection, schedule: Q01DX001 (ip), vehicle: Klucel (hydroxypropylcellulose) (HPC)) was 0 of 6 and the survivor count (dose: 200.0 mg/kg/injection, schedule: Q01DX001 (ip), vehicle: Klucel (hydroxypropylcellulose) (HPC)) was 0 of 6. For the same compound, the survivor count (dose: 400.0 mg/kg/injection, schedule: Q01DX001 (ip), vehicle: Klucel (hydroxypropylcellulose) (HPC)) was 0 of 6.
For C1CCC2C(C1)CCC1CCCCC12 (stereo not drawn), the T/C [1] was 126 % of control.
In the case of CC(/C=C/C=C/C=C/C=C/C=C/C(O)=C1/C(=O)C(CCC(=O)O)N(C)C1=O)=C\C(C)C(OC1CC(O)C(O)C(C)O1)C(C)C (stereo not drawn), the T/C (dose: 1.0 mg/kg/injection, schedule: Q01DX005 (ip), vehicle: water) is reported as 147 % of control and the T/C (dose: 2.0 mg/kg/injection, schedule: Q01DX005 (ip), vehicle: water) is reported as 146 % of control.
For Clc1cc[c]([Sb]2([c]3ccc(Cl)cc3)([c]3ccc(Cl)cc3)[O]C(C(Cl)(Cl)Cl)[O]2)cc1 (stereo not drawn), the survivor count [2] was 6 of 6 and the survivor count (dose: 200.0 mg/kg/injection, schedule: Q01DX009 (ip), vehicle: Klucel (hydroxypropylcellulose) (HPC)) was 1 of 6.
N#CNC(=Nc1ccccc1)[N](C#N)[Sn]([c]1ccccc1)([c]1ccccc1)[c]1ccccc1 was tested, and the survivor count [3] was 1 of 6, the survivor count [7] was 0 of 6 and the survivor count [4] was 0 of 6. The survivor count [5] was 0 of 6 and the survivor count [6] was 0 of 6.
In the case of S=c1[nH]ccs1, the survivor count (dose: 100.0 mg/kg/injection, schedule: Q01DX009 (ip), vehicle: water) is reported as 2 of 6 and the survivor count (dose: 200.0 mg/kg/injection, schedule: Q01DX009 (ip), vehicle: water) is reported as 0 of 6.
With CN(C)C(=S)N/N=C/c1ccccn1 the survivor count [7] was 3 of 6, the survivor count [4] was 0 of 6 and the survivor count [5] was 0 of 6. For the same compound, the survivor count [6] was 0 of 6.
For CCOC(=O)c1ccc(N=C=S)cc1, the survivor count (dose: 50.0 mg/kg/injection, schedule: Q01DX009 (ip), vehicle: distilled water + Tween-80) was 4 of 6, the survivor count (dose: 100.0 mg/kg/injection, schedule: Q01DX009 (ip), vehicle: distilled water + Tween-80) was 3 of 6 and the survivor count (dose: 200.0 mg/kg/injection, schedule: Q01DX009 (ip), vehicle: distilled water + Tween-80) was 0 of 6. For the same compound, the survivor count (dose: 400.0 mg/kg/injection, schedule: Q01DX009 (ip), vehicle: distilled water + Tween-80) was 0 of 6.
